# PubChem BioAssay AID504834 (National Center for Advancing Translational Sciences (NCATS), 2011)
# About 22,000 (6.9%) of roughly 320,000 compounds were called active. Inconclusive results, whose numbers are uncertain, are shown with a selection of clear calls. Calls come from the whole dose curve; as a rule, active = well fitted inhibition curve with a large enough effect; inconclusive = small, poorly fitted or top-dose-only effect, or another doubt; inactive = no such curve, though single readings can be large or run the other way. Where the call is inconclusive, the potency comes from a doubtful curve fit.
# Assay: Primary qHTS for delayed death inhibitors of the malarial parasite plastid, 96 hour incubation
# Settings: P. falciparum luciferase reporter growth; series mostly up to 28.7 µM; activity change, negative = inhibition: at the top concentration
# Method in brief: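 Parasite growth measured via integrated firefly luciferase reporter in P. falciparum. Infected erythrocytes at 2% hematocrit, 0.05% parasitemia final were treated 96 hours at 37 C under 5% CO2, and luminescence was read.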
# % is set by controls: 0 for no effect and ±100 for the full control effect; potency is the fitted concentration of half-maximal effect.
SMILES,Potency,"activity change, negative = inhibition"
COc1ccc(C)cc1S(=O)(=O)NCCN1CCOCC1,"inconclusive: 13.1 µM [inhibitor, single point]",–
Cc1c(C(=O)N/N=C/c2cccc(O)c2)nnn1-c1nonc1N,active: 13.1 µM,–
COc1ccc2cc3c(N)nn(C(=O)C4CCC(C(C)(C)C)CC4)c3nc2c1 (stereo not drawn),"inconclusive: 18.5 µM [inhibitor, single point]",–
CC(C)Sc1oc(-c2ccco2)nc1S(=O)(=O)c1ccccc1,"inconclusive: 20.8 µM [inhibitor, partial curve, poor fit]",–
C#CCSc1nnc(-c2cc3c(C(F)(F)F)nn(C)c3s2)n1C,"inconclusive: 0.0828 µM [inhibitor, full curve, poor fit]",–
O=C(Nc1cccc(-c2csc(Nc3ccccc3)n2)c1)c1cc([N+](=O)[O-])cc(C(F)(F)F)c1,"inconclusive: 0.329 µM [inhibitor, full curve, poor fit]",–
CC1(CCc2ccccc2)NC(=O)N(Cc2nnc(-c3ccccc3Br)o2)C1=O (stereo not drawn),"inconclusive: 18.5 µM [inhibitor, single point]",–
O=C(COc1ccc(Cl)cc1)Nc1ccc2[nH]ncc2c1,"inconclusive: 18.5 µM [inhibitor, single point]",–
CC(C)c1ccc(S(=O)(=O)NCc2ccc3c(c2)OCO3)cc1,active: 10.4 µM,–
CCCCCn1c(NC2CCCCC2)nc2c1c(=O)[nH]c(=O)n2C,"inconclusive: 13.1 µM [inhibitor, single point]",–
N/C(=N\OC(=O)C(c1ccccc1)c1ccccc1)c1ccccn1,–,inactive: 15.3%
O=c1[nH]c(-c2ccccn2)nc(C(F)(F)F)c1Br,active: 7.38 µM,–
Clc1ccc(-c2nnc(-c3ccc(Br)cc3)c(N3CCSCC3)n2)cc1,–,inactive: 3.95%
C=CCOc1ccc(/C=C/C(=O)OCC(=O)NCCCc2ccccc2)cc1,–,inactive: 25.7%
Cc1c(C(=O)NCCSCc2c(F)cccc2Cl)cnn1-c1ccc(Cl)cc1,–,inactive: -3.21%
Cc1cccc(NC(=O)Nc2cc(C)on2)c1,–,inactive: -3.9%
Cc1cc(C)cc(NC(=O)Cn2nnc(C(=O)NCc3ccco3)c2N)c1,"inconclusive: 1.47 µM [inhibitor, partial curve, poor fit]",–
CCOC(=O)N1CCN(C(=O)COC(=O)CSc2ccc([N+](=O)[O-])cc2)CC1,–,inactive: 20.9%
CCCCOc1ccc(C(=O)NCCc2cccs2)cc1,"inconclusive: 7.38 µM [inhibitor, partial curve, poor fit]",–
COc1ccccc1OCC(O)Cn1c(Br)nc2c1c(=O)[nH]c(=O)n2C (stereo not drawn),–,inactive: 4.06%
CCCCCOc1ccc2oc(=O)c3c(c2c1)CCCN3C(=O)CN1CCCC(C(=O)OCC)C1 (stereo not drawn),"inconclusive: 10.4 µM [inhibitor, single point]",–
Cc1ccc(C)c(OCCC(=O)OCC(=O)Nc2ccc(N3CCOCC3)cc2)c1,–,inactive: 64.9%
CCOC(=O)C1=C(C)NC(=O)CC1c1cc2c(cc1Br)OCO2 (stereo not drawn),–,inactive: 67.9%
COc1ccc(NC(=O)c2ccccc2NS(=O)(=O)c2ccc(CNC(C)=O)cc2)c(OC)c1,–,inactive: -9.22%
O=C(Nc1ccc(Oc2ccccc2)nc1)C1CCCCN1Cc1cccc(OCCO)c1 (stereo not drawn),"inconclusive: 10.4 µM [inhibitor, single point]",–

# Full records as entered above. Values in the order: Potency | activity change, negative = inhibition
# COc1ccccc1OCC(O)Cn1c(Br)nc2c1c(=O)[nH]c(=O)n2C (stereo not drawn) is entered as – | inactive: 4.06%
# CCCCCn1c(NC2CCCCC2)nc2c1c(=O)[nH]c(=O)n2C is entered as inconclusive: 13.1 µM [inhibitor, single point] | –
# Clc1ccc(-c2nnc(-c3ccc(Br)cc3)c(N3CCSCC3)n2)cc1 is entered as – | inactive: 3.95%

# Later entries.

SMILES,Potency,"activity change, negative = inhibition"
COc1ccc(CNCC(O)(c2ccccc2)c2ccc(F)cc2)cc1 (stereo not drawn),"inconclusive: 2.94 µM [inhibitor, full curve, poor fit]",–
Cc1ccc(Nc2nnc(SCn3nnc4ccccc4c3=O)s2)cc1,–,inactive: 17.8%
O=C1c2ccccc2C(=O)N1Nc1ccccc1,–,inactive: 228%
Cc1cc(C)nc(/N=C(\N)Nc2ccccc2-c2ccccc2)n1,–,inactive: -0.862%
CC(C)c1ccc(C(=O)OC2CCOC2=O)cc1 (stereo not drawn),–,inactive: 0%
O=C(Nc1nccs1)c1ccc(N2C(=O)C3CCCCC3C2=O)cc1 (stereo not drawn),"inconclusive: 1.65 µM [inhibitor, full curve]",–
COc1ccc(-c2ccc(-c3nnc(-c4cc(OC)ccc4OC)o3)cc2)cc1,–,inactive: -19.3%
Cc1ncn2cc(-c3ccc(Cl)cc3Cl)[nH]c(=O)c12,"inconclusive: 9.28 µM [inhibitor, partial curve, poor fit]",–
CCOc1ccc(NC(=O)CN(C)C(=O)CSCc2cccc(C)c2)cc1OCC,active: 14.7 µM,–
CC1CCCN(C(=O)Cn2nnc(-c3ccc(N(C)C)cc3)n2)C1 (stereo not drawn),"inconclusive: 11.7 µM [inhibitor, partial curve, poor fit]",–
Cn1c(COc2ccccc2)nnc1SCC(=O)Nc1ccc2c(c1)OCO2,"inconclusive: 18.5 µM [inhibitor, single point]",–
O=C(O)CC(C(=O)Nc1ccc(Cl)cc1)N1CCCCCC1 (stereo not drawn),–,inactive: -6.32%
CC12CCC(=O)N1C(C(=O)Nc1cc(Cl)ccc1N1CCOCC1)CS2 (stereo not drawn),"inconclusive: 9.28 µM [inhibitor, partial curve]",–
CC1CC(C)CN(S(=O)(=O)c2ccc(NC(=O)CN3CCCCCC3)cc2)C1 (stereo not drawn),"inconclusive: 7.38 µM [inhibitor, partial curve]",–
CCn1c2ccccc2c2cc(/C=N/n3cn[nH]c3=S)ccc21,active: 8.28 µM,–
O=C(NCC1CCCO1)c1ccc2c(=O)n(-c3ccccc3)c(=S)[nH]c2c1 (stereo not drawn),–,inactive: -1.31%
COC(=O)c1sc(NC(=O)COc2ccccc2)nc1C,"inconclusive: 2.08 µM [inhibitor, full curve]",–
COc1ccc(NC(=O)COC(=O)C2CC3C=CC2C3)cc1 (stereo not drawn),–,inactive: 72.7%
Cc1ccc(C(=O)Nc2ccccc2N2CCCCC2)o1,–,inactive: 3.33%
N#C/C(=C\c1cccc(OCC(=O)O)c1)c1nc2ccccc2[nH]1,"inconclusive: 10.4 µM [inhibitor, single point]",–
CN1C2C=C3C(C#N)=C(N)C(C#N)(C#N)[C@H](c4c(F)cccc4F)[C@H]3C1CC2 (stereo partly drawn),"inconclusive: 16.5 µM [inhibitor, partial curve, poor fit]",–
COCCNC(=O)CCc1c(C)nc2nc(-c3cc(OC)cc(OC)c3)nn2c1C,"inconclusive: 4.15 µM [inhibitor, partial curve]",–
CCN=C1S/C(=C\c2ccc(OCC)c(OC)c2)C(=O)N1CC,"inconclusive: 18.5 µM [inhibitor, single point]",–
COc1ccc(Cl)cc1S(=O)(=O)NCc1nc2nc(C)cc(C)n2n1,"inconclusive: 18.5 µM [inhibitor, single point]",–
O=C(O)C1Cc2c([nH]c3ccccc23)C(c2ccc3c(c2)OCO3)N1 (stereo not drawn),active: 9.28 µM,–

SMILES,Potency,"activity change, negative = inhibition"
CCCCn1c(N)c(N(CCOC)C(=O)c2ccc(OCc3c(C)noc3C)cc2)c(=O)[nH]c1=O,–,inactive: -25.5%
C=CCN(CC=C)CC(O)CN(c1cc([N+](=O)[O-])ccc1OC)S(=O)(=O)c1ccccc1 (stereo not drawn),–,inactive: 35.5%
C=CCc1c(C)nc2c(OC)cccc2c1Cl,"inconclusive: 0.0029 µM [inhibitor, full curve, poor fit]",–
Cc1cccc(OCC(=O)N(C)CC(=O)Nc2cccc(F)c2)c1C,"inconclusive: 18.5 µM [inhibitor, single point]",–
CCOc1cccc(SCc2noc(C(=O)NCC3CCCO3)c2C(=O)O)c1 (stereo not drawn),–,inactive: 12.3%
Cc1cccc(C(=O)NCC(=O)Nc2ccc(S(=O)(=O)Nc3nc(C)cc(C)n3)cc2)c1,"inconclusive: 0.415 µM [inhibitor, full curve, poor fit]",–
CC1CC(NC(=O)c2c(O)nc3sccn3c2=O)CC(C)(C)C1 (stereo not drawn),"inconclusive: 8.28 µM [inhibitor, partial curve]",–
COc1ccccc1N1C(=O)C2C(c3ccccc3F)NN(C(=O)c3ccc(C)cc3)C2C1=O (stereo not drawn),"inconclusive: 18.5 µM [inhibitor, single point]",–
COc1ccc(N2CCN(c3cc(C)nc4ccc(OC)cc34)CC2)cc1,"inconclusive: 11.7 µM [inhibitor, partial curve]",–
COc1ccccc1NC(=O)c1ccc(C(=O)Nc2ccccc2OC)nc1,"inconclusive: 10.4 µM [inhibitor, partial curve]",–
COc1cc(/C=N/Nc2ccccc2[N+](=O)[O-])cc(OC)c1O,–,inactive: -4.44%
O=C(COc1ncnc2sccc12)N1CCN(S(=O)(=O)c2ccc(Cl)cc2)CC1,"inconclusive: 16.5 µM [inhibitor, single point]",–
CSc1cccc(NC(=O)C(C)Sc2ccc(C)cc2)c1 (stereo not drawn),"inconclusive: 18.5 µM [inhibitor, single point]",–
N/C(=N\OC(=O)c1cc(-c2ccccc2)nc2ccccc12)c1ccccn1,"inconclusive: 10.4 µM [inhibitor, partial curve, poor fit]",–
O=C(Nc1ccc(Cl)cn1)c1ccc(Oc2ccccc2)cc1,"inconclusive: 2.94 µM [inhibitor, partial curve, poor fit]",–
C/C(=N\Nc1ncc(Cl)cc1Cl)c1ccccn1,"inconclusive: 2.62 µM [inhibitor, full curve, poor fit]",–
CCOC(=O)C(C)Sc1nnc(Cc2cc(=O)[nH]c(=O)[nH]2)n1-c1ccc(Cl)cc1 (stereo not drawn),–,inactive: -0.986%
CNC(=O)N(O)C1N(/N=C/c2cccnc2)C(=S)SC1(C)C (stereo not drawn),"inconclusive: 18.5 µM [inhibitor, single point]",–
O=C(CN1CCN(CC(=O)Nc2ccccc2Cl)CC1)NCC1(N2CCCCC2)CCCCC1,"inconclusive: 3.7 µM [inhibitor, full curve, poor fit]",–
Cc1cc(O)ccc1Cl,–,inactive: -2.1%
COc1ccc(CNC(=O)C/C(C)=N/NC(=O)COc2ccc(Br)cc2)cc1,–,inactive: 39.2%
O=C(Nc1ccccn1)C1COc2ccccc2O1 (stereo not drawn),active: 5.86 µM,–
O=C(CSc1nc(N2CCOCC2)nc(N2CCOCC2)n1)Nc1ccc([N+](=O)[O-])cc1,–,inactive: -12.7%

# Individual results from the results shown.
# Value for CCOc1cccc(SCc2noc(C(=O)NCC3CCCO3)c2C(=O)O)c1 (stereo not drawn) under activity change, negative = inhibition: inactive: 12.3%
# Value for COc1ccc(CNC(=O)C/C(C)=N/NC(=O)COc2ccc(Br)cc2)cc1 under activity change, negative = inhibition: inactive: 39.2%
